Results taken from patent publication US8895587B2, “Insecticidal compounds based on arylthioacetamide derivatives” (Syngenta Participations AG, priority 2011, dated 2014).
Some of these results come from one statement about several compounds together.

Tested on: Plutella xylostella
Experiment: Plutella xylostella (diamond back moth) larval test on artificial diet
Format: in vivo
Conditions: application rate 200 ppm (concentration in well 18 ppm); L2 larvae on artificial diet; 6 days
Protocol: 24-well microtiter plate (MTP) with artificial diet was treated with test solutions at an application rate of 200 ppm (concentration in well 18 ppm) by pipetting. After drying, the MTP's were infested with L2 larvae (7-12 per well). After an incubation period of 6 days, samples were checked for larval mortality and growth regulation.

SMILES | control of Plutella xylostella
Cc1cc(C2=NOC(c3cc(Cl)cc(Cl)c3)(C(F)(F)F)C2)ccc1SCC(=O)NCC(C)C (stereo not shown) [Compound C91] | at least 80%
O=C(CSc1ccc(C2=NOC(c3cc(Cl)cc(Cl)c3)(C(F)(F)F)C2)cc1Br)NCc1ccccc1 (stereo not shown) [Compound A33] | at least 80%
C=C(Cl)CNC(=O)CSc1ccc(C2=NOC(c3cc(Cl)cc(Cl)c3)(C(F)(F)F)C2)cc1Br (stereo not shown) [Compound A74] | at least 80%
CC(C)NC(=O)CSc1ccc(C2=NOC(c3cc(Cl)cc(Cl)c3)(C(F)(F)F)C2)cc1Br (stereo not shown) [Compound A86] | at least 80%
CC(NC(=O)CSc1ccc(C2=NOC(c3cc(Cl)cc(Cl)c3)(C(F)(F)F)C2)cc1Br)c1ccccc1 (stereo not shown) [Compound A35] | at least 80%
CCC(C)CNC(=O)CSc1ccc(C2=NOC(c3cc(Cl)cc(Cl)c3)(C(F)(F)F)C2)cc1Br (stereo not shown) [Compound A72] | at least 80%
Cc1cc(C2=NO[C@@](c3cc(Cl)cc(Cl)c3)(C(F)(F)F)C2)ccc1[S+]([O-])CC(=O)NCC(F)(F)F (stereo partly drawn) [Compound C2, 2-{4-(S)-[5-(3,5-Dichloro-phenyl)-5-trifluoromethyl-4,5-dihydro-isoxazol-3-yl]-2-methyl-benzenesulfinyl}-N-(2,2,2-trifluoro-ethyl)-acetamide] | at least 80%
O=C(CSc1ccc(C2=NOC(c3cc(Cl)cc(Cl)c3)(C(F)(F)F)C2)cc1Br)NC1CC1 (stereo not shown) [Compound C7] | at least 80%
O=C(CSc1ccc(C2=NOC(c3cc(Cl)cc(Cl)c3)(C(F)(F)F)C2)cc1Br)NCC(F)F (stereo not shown) [Compound A89] | at least 80%
O=C(CSc1ccc(C2=NO[C@@](c3cc(Cl)cc(Cl)c3)(C(F)(F)F)C2)cc1Cl)NCC1CC1 [Compound C33] | at least 80%
COCC(C)NC(=O)CSc1ccc(C2=NOC(c3cc(Cl)cc(Cl)c3)(C(F)(F)F)C2)cc1Cl (stereo not shown) [Compound A3] | at least 80%
O=C(CSc1ccc(C2=NOC(c3cc(Cl)cc(Cl)c3)(C(F)(F)F)C2)cc1Br)NC1CSC1 (stereo not shown) [Compound A46] | at least 80%
CON=CC(C)(C)NC(=O)CSc1ccc(C2=NOC(c3cc(Cl)cc(Cl)c3)(C(F)(F)F)C2)cc1Cl (stereo not shown) [Compound C74] | at least 80%
C=C(Cl)CNC(=O)CSc1ccc(C2=NOC(c3cc(Cl)cc(Cl)c3)(C(F)(F)F)C2)cc1Cl (stereo not shown) [Compound C68] | at least 80%
COCC(C)NC(=O)CSc1ccc(C2=NOC(c3cc(Cl)cc(Cl)c3)(C(F)(F)F)C2)cc1Br (stereo not shown) [Compound A27] | at least 80%
C#CC(C)(C)NC(=O)CSc1ccc(C2=NOC(c3cc(Cl)cc(Cl)c3)(C(F)(F)F)C2)cc1Br (stereo not shown) [Compound A71] | at least 80%
N#CCNC(=O)CSc1ccc(C2=NOC(c3cc(Cl)cc(Cl)c3)(C(F)(F)F)C2)cc1Cl (stereo not shown) [Compound C73] | at least 80%
Cc1cc(C2=NOC(c3cc(Cl)cc(Cl)c3)(C(F)(F)F)C2)cc(C)c1[S+]([O-])CC(=O)NCC(F)(F)F (stereo not shown) [Compound E2] | at least 80%
CCNC(=O)CSc1ccc(C2=NOC(c3cc(Cl)cc(Cl)c3)(C(F)(F)F)C2)cc1Br (stereo not shown) [Compound A25] | at least 80%
CON=CC(C)(C)NC(=O)CSc1ccc(C2=NOC(c3cc(Cl)cc(Cl)c3)(C(F)(F)F)C2)cc1C (stereo not shown) [Compound C99] | at least 80%

SMILES | control of Plutella xylostella
O=C(CSc1ccc(C2=NOC(c3cc(Cl)cc(Cl)c3)(C(F)(F)F)C2)cc1Br)NCc1ccc(Cl)nc1 (stereo not shown) [Compound A38] | at least 80%
Cc1cc(C2=NOC(c3cc(Cl)cc(Cl)c3)(C(F)(F)F)C2)ccc1SCC(=O)NC(C)C(C)C (stereo not shown) [Compound C80] | at least 80%
CCOC(=O)CNC(=O)CSc1ccc(C2=NO[C@@](c3cc(Cl)cc(Cl)c3)(C(F)(F)F)C2)cc1Cl [Compound C13] | at least 80%
O=C(CSc1ccc(C2=NOC(c3cc(Cl)cc(Cl)c3)(C(F)(F)F)C2)cc1Br)NCc1ccccn1 (stereo not shown) [Compound A40] | at least 80%
CCOC(=O)CNC(=O)CSc1ccc(C2=NOC(c3cc(Cl)cc(Cl)c3)(C(F)(F)F)C2)cc1Cl (stereo not shown) [Compound A58] | at least 80%
Cc1cc(C2=NOC(c3cc(Cl)cc(Cl)c3)(C(F)(F)F)C2)ccc1SCC(=O)NCC#N (stereo not shown) [Compound C89] | at least 80%
CC#CCNC(=O)CSc1ccc(C2=NOC(c3cc(Cl)cc(Cl)c3)(C(F)(F)F)C2)cc1Cl (stereo not shown) [Compound C76] | at least 80%
O=C(CSc1ccc(C2=NOC(c3cc(Cl)cc(Cl)c3)(C(F)(F)F)C2)cc1Br)NCc1ccccc1F (stereo not shown) [Compound A34] | at least 80%
Cc1cc(C2=NOC(c3cc(Cl)cc(Cl)c3)(C(F)(F)F)C2)cc(C)c1S(=O)(=O)CC(=O)NCC(F)(F)F (stereo not shown) [Compound E3] | at least 80%
Cc1cc(C2=NOC(c3cc(Cl)cc(Cl)c3)(C(F)(F)F)C2)ccc1SCC(=O)NCC(F)F (stereo not shown) [Compound C93] | at least 80%
C=C(C)CNC(=O)CSc1ccc(C2=NOC(c3cc(Cl)cc(Cl)c3)(C(F)(F)F)C2)cc1Br (stereo not shown) [Compound A76] | at least 80%
C=C(Cl)CNC(=O)CSc1ccc(C2=NOC(c3cc(Cl)cc(Cl)c3)(C(F)(F)F)C2)cc1C (stereo not shown) [Compound C84] | at least 80%
Cc1cc(C2=NOC(c3cc(Cl)cc(Cl)c3)(C(F)(F)F)C2)ccc1SCC(=O)NC(C)(C)C#N (stereo not shown) [Compound C87] | at least 80%
Cc1cc(C2=NOC(c3cc(Cl)cc(Cl)c3)(C(F)(F)F)C2)ccc1SCC(=O)NC(C)CF (stereo not shown) [Compound C102] | at least 80%
C=CCNC(=O)CSc1ccc(C2=NOC(c3cc(Cl)cc(Cl)c3)(C(F)(F)F)C2)cc1C (stereo not shown) [Compound C94] | at least 80%
Cc1csc(NC(=O)CSc2ccc(C3=NOC(c4cc(Cl)cc(Cl)c4)(C(F)(F)F)C3)cc2Br)n1 (stereo not shown) [Compound A42] | at least 80%
CC(C)(C#N)NC(=O)CSc1ccc(C2=NOC(c3cc(Cl)cc(Cl)c3)(C(F)(F)F)C2)cc1Cl (stereo not shown) [Compound C71] | at least 80%
CCC(C)CNC(=O)CSc1ccc(C2=NOC(c3cc(Cl)cc(Cl)c3)(C(F)(F)F)C2)cc1C (stereo not shown) [Compound C82] | at least 80%
O=C(CSc1ccc(C2=NOC(c3cc(Cl)cc(Cl)c3)(C(F)(F)F)C2)cc1Br)NC1CCC1 (stereo not shown) [Compound A48] | at least 80%
N#CCNC(=O)CSc1ccc(C2=NOC(c3cc(Cl)cc(Cl)c3)(C(F)(F)F)C2)cc1Br (stereo not shown) [Compound A79] | at least 80%

SMILES | control of Plutella xylostella
O=C(CSc1ccc(C2=NOC(c3cc(Cl)cc(Cl)c3)(C(F)(F)F)C2)cc1Br)NC1CS(=O)(=O)C1 (stereo not shown) [Compound A37] | at least 80%
CC1(NC(=O)CSc2ccc(C3=NOC(c4cc(Cl)cc(Cl)c4)(C(F)(F)F)C3)cc2Cl)CSC1 (stereo not shown) [Compound A19] | at least 80%
CC(C)CNC(=O)CSc1ccc(C2=NOC(c3cc(Cl)cc(Cl)c3)(C(F)(F)F)C2)cc1Br (stereo not shown) [Compound A87] | at least 80%
O=C(CSc1ccc(C2=NOC(c3cc(Cl)cc(Cl)c3)(C(F)(F)F)C2)cc1Cl)NCCF (stereo not shown) [Compound C72] | at least 80%
O=C(CSc1ccc(C2=NOC(c3cc(Cl)cc(Cl)c3)(C(F)(F)F)C2)cc1Cl)NC1CC1 (stereo not shown) [Compound C58] | at least 80%
CSCCNC(=O)CSc1ccc(C2=NO[C@@](c3cc(Cl)cc(Cl)c3)(C(F)(F)F)C2)cc1Cl [Compound C15] | at least 80%
O=C(CSc1ccc(C2=NOC(c3cc(Cl)cc(Cl)c3)(C(F)(F)F)C2)cc1Cl)NC1CCC1 (stereo not shown) [Compound A24] | at least 80%
CC(C#N)NC(=O)CSc1ccc(C2=NOC(c3cc(Cl)cc(Cl)c3)(C(F)(F)F)C2)cc1Br (stereo not shown) [Compound A75] | at least 80%
Cc1cc(C2=NOC(c3cc(Cl)cc(Cl)c3)(C(F)(F)F)C2)ccc1SCC(=O)NC(C)C (stereo not shown) [Compound C90] | at least 80%
CC(C)(C)NC(=O)CSc1ccc(C2=NOC(c3cc(Cl)cc(Cl)c3)(C(F)(F)F)C2)cc1Cl (stereo not shown) [Compound C62] | at least 80%
CC(CF)NC(=O)CSc1ccc(C2=NOC(c3cc(Cl)cc(Cl)c3)(C(F)(F)F)C2)cc1Br (stereo not shown) [Compound A83] | at least 80%
CCCNC(=O)CSc1ccc(C2=NOC(c3cc(Cl)cc(Cl)c3)(C(F)(F)F)C2)cc1Br (stereo not shown) [Compound A85] | at least 80%
O=C(CS(=O)(=O)c1ccc(C2=NO[C@@](c3cc(Cl)cc(Cl)c3)(C(F)(F)F)C2)cc1Cl)NCC(F)(F)F [Compound C6, 2-{4-(S)-[5-(3,5-dichloro-phenyl)-5-trifluoromethyl-4,5-dihydro-isoxazol-3-yl]-2-chloro-benzenesulfonyl}-N-(2,2,2-trifluoro-ethyl)-acetamide] | at least 80%
C#CCNC(=O)CSc1ccc(C2=NO[C@@](c3cc(Cl)cc(Cl)c3)(C(F)(F)F)C2)cc1Cl [Compound C44] | at least 80%
O=C(CNC(=O)CSc1ccc(C2=NOC(c3cc(Cl)cc(Cl)c3)(C(F)(F)F)C2)cc1Cl)NCC(F)(F)F (stereo not shown) [Compound A4] | at least 80%
O=C(CSc1ccc(C2=NOC(c3cc(Cl)cc(Cl)c3)(C(F)(F)F)C2)cc1Cl)NCc1ccc(Cl)nc1 (stereo not shown) [Compound A14] | at least 80%
CNC(=O)CSc1ccc(C2=NOC(c3cc(Cl)cc(Cl)c3)(C(F)(F)F)C2)cc1C (stereo not shown) [Compound C79] | at least 80%
Cc1cc(NC(=O)CSc2ccc(C3=NOC(c4cc(Cl)cc(Cl)c4)(C(F)(F)F)C3)cc2Br)n(C)n1 (stereo not shown) [Compound A41] | at least 80%
